Data: paper PMC9841400
These are yes or no findings as the source states them, for the method shown. Binding seen in cells or lysates may run through a third protein.

By UniProt entry, the sequences of proteins in these tests, tags left out.
UniProt Q15648: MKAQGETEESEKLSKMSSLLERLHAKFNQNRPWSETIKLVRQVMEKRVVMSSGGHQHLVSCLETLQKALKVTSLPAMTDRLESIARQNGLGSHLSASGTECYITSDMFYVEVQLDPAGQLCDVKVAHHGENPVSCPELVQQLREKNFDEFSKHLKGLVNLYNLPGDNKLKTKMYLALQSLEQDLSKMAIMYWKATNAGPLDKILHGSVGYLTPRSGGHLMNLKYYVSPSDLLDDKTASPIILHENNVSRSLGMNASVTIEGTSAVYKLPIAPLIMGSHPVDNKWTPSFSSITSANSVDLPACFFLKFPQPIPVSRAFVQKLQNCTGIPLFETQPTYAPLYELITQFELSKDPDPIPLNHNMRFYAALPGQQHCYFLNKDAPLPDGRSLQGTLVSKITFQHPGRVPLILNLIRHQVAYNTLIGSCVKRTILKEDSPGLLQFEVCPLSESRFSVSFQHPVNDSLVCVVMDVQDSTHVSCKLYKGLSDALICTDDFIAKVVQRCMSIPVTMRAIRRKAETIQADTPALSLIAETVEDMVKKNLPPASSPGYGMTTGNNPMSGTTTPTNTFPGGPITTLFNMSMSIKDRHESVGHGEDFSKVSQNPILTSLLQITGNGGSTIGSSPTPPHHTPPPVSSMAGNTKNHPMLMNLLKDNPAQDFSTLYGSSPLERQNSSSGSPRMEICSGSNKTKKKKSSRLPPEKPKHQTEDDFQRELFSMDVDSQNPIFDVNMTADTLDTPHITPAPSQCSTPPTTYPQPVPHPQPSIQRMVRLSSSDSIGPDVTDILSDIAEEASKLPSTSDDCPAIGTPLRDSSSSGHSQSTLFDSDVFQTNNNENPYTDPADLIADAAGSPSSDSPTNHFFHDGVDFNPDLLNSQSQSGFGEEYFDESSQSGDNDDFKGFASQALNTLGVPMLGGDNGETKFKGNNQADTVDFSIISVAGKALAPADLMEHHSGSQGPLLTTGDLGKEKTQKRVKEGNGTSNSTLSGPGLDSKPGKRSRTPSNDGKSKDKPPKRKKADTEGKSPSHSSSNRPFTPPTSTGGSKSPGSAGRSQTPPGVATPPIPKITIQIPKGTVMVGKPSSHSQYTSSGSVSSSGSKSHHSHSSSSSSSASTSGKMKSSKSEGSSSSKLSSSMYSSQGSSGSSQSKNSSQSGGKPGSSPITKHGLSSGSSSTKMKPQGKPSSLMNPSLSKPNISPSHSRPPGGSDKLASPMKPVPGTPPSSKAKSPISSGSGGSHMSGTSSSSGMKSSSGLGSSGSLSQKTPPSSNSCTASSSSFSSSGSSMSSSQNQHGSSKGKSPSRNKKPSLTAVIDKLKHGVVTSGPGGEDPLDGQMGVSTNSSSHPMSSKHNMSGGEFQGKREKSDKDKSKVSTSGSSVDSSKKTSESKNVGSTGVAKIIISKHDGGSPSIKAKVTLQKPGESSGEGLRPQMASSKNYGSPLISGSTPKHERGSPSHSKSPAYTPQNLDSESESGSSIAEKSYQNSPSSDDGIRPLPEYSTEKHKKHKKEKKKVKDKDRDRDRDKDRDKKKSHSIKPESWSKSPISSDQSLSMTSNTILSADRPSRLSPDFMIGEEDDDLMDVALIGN
UniProt P10275: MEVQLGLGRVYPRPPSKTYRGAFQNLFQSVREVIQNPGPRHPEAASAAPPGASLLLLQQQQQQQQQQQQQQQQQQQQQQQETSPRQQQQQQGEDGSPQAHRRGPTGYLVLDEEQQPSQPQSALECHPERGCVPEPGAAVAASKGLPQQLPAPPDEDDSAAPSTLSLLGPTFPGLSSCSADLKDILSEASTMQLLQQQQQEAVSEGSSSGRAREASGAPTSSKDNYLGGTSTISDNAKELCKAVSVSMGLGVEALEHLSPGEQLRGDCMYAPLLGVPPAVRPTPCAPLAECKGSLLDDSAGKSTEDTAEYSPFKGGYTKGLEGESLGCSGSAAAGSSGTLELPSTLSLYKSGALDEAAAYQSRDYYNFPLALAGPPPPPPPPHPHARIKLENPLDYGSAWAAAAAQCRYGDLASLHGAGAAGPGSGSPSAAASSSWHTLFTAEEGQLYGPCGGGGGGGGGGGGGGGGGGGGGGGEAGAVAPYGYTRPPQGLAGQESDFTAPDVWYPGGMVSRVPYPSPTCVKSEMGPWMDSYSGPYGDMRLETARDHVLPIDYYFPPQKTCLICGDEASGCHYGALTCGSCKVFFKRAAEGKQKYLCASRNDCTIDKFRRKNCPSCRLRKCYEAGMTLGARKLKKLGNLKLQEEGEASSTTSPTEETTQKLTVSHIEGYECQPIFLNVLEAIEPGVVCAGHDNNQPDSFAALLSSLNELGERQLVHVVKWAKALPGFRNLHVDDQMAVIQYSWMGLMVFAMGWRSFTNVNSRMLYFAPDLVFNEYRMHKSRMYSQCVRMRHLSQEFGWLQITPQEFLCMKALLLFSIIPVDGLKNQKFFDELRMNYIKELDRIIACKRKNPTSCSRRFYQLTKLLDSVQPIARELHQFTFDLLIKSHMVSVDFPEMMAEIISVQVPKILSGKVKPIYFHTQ

Target: phosphorylated mediator complex subunit 1 (MED1, phospho T1457), endogenous in clinical prostate specimens (human (endogenous in clinical prostate tumor specimens)) (UniProt Q15648)
Assay: condition: only in benign prostate tissues or muscles; proximity ligation; as a1 (Duolink brightfield kit, Ventana autostainer), on benign prostate tissues or muscles

binding: no binding
Substance: androgen receptor (AR), endogenous in clinical prostate specimens (from UniProt P10275 1-920)
